Measurements reported in PMC3667844.
These are yes or no findings as the source states them, for the method shown. For some of these results: In cells and extracts the contact can be indirect. For some of these results: Sequences can lack the tags named with a protein.

Protein sequences, listed by entry. Tags and fused reporters are not part of them. Lines headed by an entry give the natural chain unless they say otherwise; changes in a name come on top.
UniProt Q9NRW1: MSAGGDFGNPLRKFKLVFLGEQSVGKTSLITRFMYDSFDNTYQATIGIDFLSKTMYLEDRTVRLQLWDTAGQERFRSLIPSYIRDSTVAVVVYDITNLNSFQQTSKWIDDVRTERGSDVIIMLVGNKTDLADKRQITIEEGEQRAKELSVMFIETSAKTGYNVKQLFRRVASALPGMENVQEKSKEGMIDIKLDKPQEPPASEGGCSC
UniProt P20340: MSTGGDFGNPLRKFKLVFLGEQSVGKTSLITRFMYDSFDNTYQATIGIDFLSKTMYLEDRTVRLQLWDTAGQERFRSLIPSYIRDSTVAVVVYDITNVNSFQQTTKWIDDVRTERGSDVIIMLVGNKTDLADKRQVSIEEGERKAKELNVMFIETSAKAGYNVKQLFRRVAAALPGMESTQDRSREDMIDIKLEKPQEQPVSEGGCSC

What was measured:
pAS Rab6B T27N [1] = target: pAS Rab6B T27N (UniProt Q9NRW1); assay: two-hybrid; Y190 co-transformed with prey (pP6 or pACT) and bait (pAS) plasmids; β-galactosidase reporter activity on replica filters with X-gal (β-gal)
pAS Rab6B Q72L [2] = target: pAS Rab6B Q72L (UniProt Q9NRW1); assay: as above
pAS Rab6A wt [3] = target: pAS Rab6A wt (UniProt P20340); assay: as above
pAS Rab6B wt [4] = target: pAS Rab6B wt (UniProt Q9NRW1); assay: as above
pAS Rab6A Q72L [5] = target: pAS Rab6A Q72L (UniProt P20340); assay: as above
pAS Rab6A T27N [6] = target: pAS Rab6A T27N (UniProt P20340); assay: as above
pAS Rab6B T27N [7] = target: pAS Rab6B T27N (UniProt Q9NRW1); assay: two-hybrid; Y190 co-transformed with prey (pP6 or pACT) and bait (pAS) plasmids; growth on synthetic medium lacking leucine, tryptophan and histidine with 30 mM 3 AT (his3)
pAS Rab6B Q72L [8] = target: pAS Rab6B Q72L (UniProt Q9NRW1); assay: as above
pAS Rab6A wt [9] = target: pAS Rab6A wt (UniProt P20340); assay: as above
pAS Rab6B wt [10] = target: pAS Rab6B wt (UniProt Q9NRW1); assay: as above
pAS Rab6A Q72L [11] = target: pAS Rab6A Q72L (UniProt P20340); assay: as above
pAS Rab6A T27N [12] = target: pAS Rab6A T27N (UniProt P20340); assay: as above
ECFP Rab6B Q72L = ECFP Rab6B Q72L (UniProt Q9NRW1); assay: FRET or BRET; flow cytometry based FRET in co-transfected HeLa T-REx cells; ECFP and EYFP fusions, EYFP fluorescence (550 nm) from 405 nm excitation of double positive cells
ECFP Rab6A Q72L = ECFP Rab6A Q72L (UniProt P20340); assay: as above

Measured: binding

B1: pACT Mint1 PTB (aa 438–625) (domain or fragment, UniProt Q02410-1 438-625)
chain: ASFPTYVEVPGPCDPEDLIDGIIFAANYLGSTQLLSDKTPSKNVRMMQAQEAVSRIKMAQKLAKSRKKAPEGESQPMTEVDLFISTQRIKVLNADTQETMMDHPLRTISYIADIGNIVVLMARRRMPRSNSQENVEASHPSQDGKRQYKMICHVFESEDAQLIAQSIGQAFSVAYQEFLRANGINPED
no binding: pAS Rab6B T27N [1] | pAS Rab6B Q72L [2] | pAS Rab6A wt [3] | pAS Rab6B wt [4] | pAS Rab6A Q72L [5] | pAS Rab6A T27N [6] | pAS Rab6B T27N [7] | pAS Rab6B Q72L [8] | pAS Rab6A wt [9] | pAS Rab6B wt [10] | pAS Rab6A Q72L [11] | pAS Rab6A T27N [12]

B2: EYFP Mint1 PTB (domain or fragment, UniProt Q02410-1 438-625)
chain: B1 chain
no binding: ECFP Rab6B Q72L | ECFP Rab6A Q72L

B3: pACT Mint1, full length conventional Mint1 (NM_001163.3) (protein, UniProt Q02410-1 1-837)
chain: MNHLEGSAEVEVTDEAAGGEVNESVEADLEHPEVEEEQQQPPQQQHYVGRHQRGRALEDLRAQLGQEEEERGECLARSASTESGFHNHTDTAEGDVIAAARDGYDAERAQDPEDESAYAVQYRPEAEEYTEQAEAEHAEATHRRALPNHLHFHSLEHEEAMNAAYSGYVYTHRLFHRGEDEPYSEPYADYGGLQEHVYEEIGDAPELDARDGLRLYEQERDEAAAYRQEALGARLHHYDERSDGESDSPEKEAEFAPYPRMDSYEQEEDIDQIVAEVKQSMSSQSLDKAAEDMPEAEQDLERPPTPAGGRPDSPGLQAPAGQQRAVGPAGGGEAGQRYSKEKRDAISLAIKDIKEAIEEVKTRTIRSPYTPDEPKEPIWVMRQDISPTRDCDDQRPMDGDSPSPGSSSPLGAESSSTSLHPSDPVEASTNKESRKSLASFPTYVEVPGPCDPEDLIDGIIFAANYLGSTQLLSDKTPSKNVRMMQAQEAVSRIKMAQKLAKSRKKAPEGESQPMTEVDLFISTQRIKVLNADTQETMMDHPLRTISYIADIGNIVVLMARRRMPRSNSQENVEASHPSQDGKRQYKMICHVFESEDAQLIAQSIGQAFSVAYQEFLRANGINPEDLSQKEYSDLLNTQDMYNDDLIHFSKSENCKDVFIEKQKGEILGVVIVESGWGSILPTVIIANMMHGGPAEKSGKLNIGDQIMSINGTSLVGLPLSTCQSIIKGLKNQSRVKLNIVRCPPVTTVLIRRPDLRYQLGFSVQNGIICSLMRGGIAERGGVRVGHRIIEINGQSVVATPHEKIVHILSNAVGEIHMKTMPAAMYRLLTAQEQPVYI
no binding: pAS Rab6B T27N [1] | pAS Rab6B Q72L [2] | pAS Rab6A Q72L [5] | pAS Rab6A T27N [6] | pAS Rab6B T27N [7] | pAS Rab6B Q72L [8] | pAS Rab6A Q72L [11] | pAS Rab6A T27N [12]
